Data source: PubChem BioAssay AID743448 (Peter MacCallum Cancer Centre, 2014)
This is an unselected part of the 106 reagents, under one of the conditions tested. 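Calls are per line and drug panel including etoposide, not vorinostat-specific; gene picks needed hits in two or more extra lines with vorinostat versus etoposide.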 No sequences are given here.

Test: 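Find knock-downs giving vorinostat-specific cell death in several colon cancer lines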 (follow-up of hits)
Cell system: four human colon cancer cell lines: HCT116-VR (vorinostat-resistant HCT116 derivative), SW480, SW620 and LIM1215
Reagent: siRNA pool against human genes, 40 nM siRNA pool
Timing: drug added two days after transfection, read one day later
Challenge: vorinostat 2.5 µM on one half of each plate, etoposide 5 µM on the other half
Cell line and drug panel: SW620 cells with vorinostat
Measurement: 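Caspase luminescence and viability fluorescence, each expressed relative to mock transfection and also as robust z-scores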
Scale: caspase ratio to mock: higher = more caspase activity than mock; viability ratio to mock: higher = more live cells than mock; caspase robust z-score: higher = more caspase activity, more apoptosis; viability robust z-score: higher = more live cells
Active means: 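a row is a hit if caspase relative to mock is 1.6 or above or viability relative to mock is 0.75 or below; wells dying heavily without drug are not called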
Meaning of the calls: active = caspase or viability hit in this panel; inactive = no change, or unhealthy well

gene	caspase ratio to mock	viability ratio to mock	caspase robust z-score	viability robust z-score	call
PLAG1 (GeneID 5324)	0.96	0.89	-1.1	-0.16	inactive
FLII (GeneID 2314)	1.5	1.08	0.4	1.21	inactive
NUP58 (GeneID 9818)	1.04	0.84	-0.9	-0.52	inactive
EIF2B5 (GeneID 8893)	1.09	0.86	-0.74	-0.34	inactive
INTS6L (GeneID 203522)	1.24	1.04	-0.34	0.87	inactive
RBM42 (GeneID 79171)	0.66	0.94	-1.96	0.2	inactive
ANKRD13C-DT (GeneID 11147)	1.23	0.88	-0.38	-0.22	inactive
DPPA5 (GeneID 340168)	1.77	1.03	1.19	0.84	active
LRP3 (GeneID 4037)	1.43	0.98	0.22	0.5	inactive
THOC5 (GeneID 8563)	1.73	0.94	1.1	0.16	active
CNOT3 (GeneID 4849)	1.6	1.04	0.69	0.9	active
MSANTD1 (GeneID 345222)	1.58	0.92	0.61	0.1	inactive
NFYA (GeneID 4800)	0.76	0.84	-1.68	-0.52	inactive
SCRT2 (GeneID 85508)	1.28	1.08	-0.18	1.16	inactive
PSMD4 (GeneID 5710)	1.58	0.92	0.66	0.03	inactive
BEGAIN (GeneID 57596)	1.53	1	0.5	0.62	inactive
IQSEC1 (GeneID 9922)	1.41	0.9	0.16	-0.04	inactive
CBX7 (GeneID 23492)	1.82	0.95	1.31	0.29	active
MICALL2 (GeneID 79778)	1.97	1.06	1.75	1.06	active
EIF2B2 (GeneID 8892)	1.34	0.82	-0.06	-0.68	inactive
EIF3L (GeneID 51386)	1.46	1.06	0.28	1.09	inactive
HPCAL1 (GeneID 3241)	1.61	1.02	0.7	0.82	active
GPER1 (GeneID 2852)	1.17	0.83	-0.5	-0.58	inactive
PSMA7 (GeneID 5688)	1.61	0.74	0.72	-1.18	active
SAP130 (GeneID 79595)	1.2	0.97	-0.43	0.41	inactive
C1orf210 (GeneID 149466)	1.76	0.68	1.16	-1.63	active
MED26 (GeneID 9441)	2.33	1.1	2.74	1.33	active
AMDHD2 (GeneID 51005)	1.27	0.94	-0.23	0.19	inactive
DDX19B (GeneID 11269)	1.6	1.19	0.66	2.01	active
H1-5 (GeneID 3009)	1.31	0.66	-0.12	-1.73	active
NUP93 (GeneID 9688)	0.98	0.92	-1.06	0.06	inactive
RLN3 (GeneID 117579)	1.48	0.86	0.3	-0.43	inactive
C1orf52 (GeneID 148423)	1.15	1.01	-0.59	0.68	inactive
RERE (GeneID 473)	1.18	0.98	-0.48	0.54	inactive
THAP3 (GeneID 90326)	1.42	0.85	0.2	-0.42	inactive
NPC1L1 (GeneID 29881)	1.41	0.96	0.12	0.32	inactive
LAD1 (GeneID 3898)	1.77	1.02	1.19	0.78	active
DNTTIP2 (GeneID 30836)	0.98	0.99	-1.06	0.52	inactive
POLR2D (GeneID 5433)	1.81	0.73	1.26	-1.31	active
SERTAD1 (GeneID 29950)	1.27	0.85	-0.22	-0.43	inactive
POLR2I (GeneID 5438)	1.9	1.01	1.54	0.68	active
DDX18 (GeneID 8886)	0.89	0.96	-1.31	0.36	inactive
AKAP8 (GeneID 10270)	1.19	1.07	-0.46	1.11	inactive
GNG8 (GeneID 94235)	1.86	0.88	1.4	-0.26	active
POLR2L (GeneID 5441)	1.52	0.79	0.5	-0.86	inactive
CCNK (GeneID 8812)	1.6	0.94	0.72	0.22	active
BDP1 (GeneID 55814)	1.46	1.06	0.3	1.04	inactive
GATA1 (GeneID 2623)	1.52	0.8	0.5	-0.84	inactive
OR6T1 (GeneID 219874)	1.2	0.88	-0.44	-0.26	inactive
NUP54 (GeneID 53371)	1.14	0.82	-0.62	-0.68	inactive
